# Test results taken from PubChem BioAssay AID1487 (National Center for Advancing Translational Sciences (NCATS), 2009).
# Some of the results follow. These are further read-outs of the screen, such as a control signal, another cell line or another target. No call is given for them. The list favours compounds with an active or inconclusive main result. Words in brackets tell the shape of the fitted curve; partial curves, single points and poor fits give uncertain potencies.
# Assay: qHTS Assay for Modulators of Lamin A Splicing
# Conditions: HeLa LMNA splicing GFP/RFP minigene ratio, 48 h
# Outline: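 S3 HeLa stable clones carrying a lamin A-EGFP splicing minigene plus DsRed2 were seeded at 600 cells/well in Opti-MEM with 2% FBS, pin-dosed and incubated 48 h at 37°C. Acumen cytometry (488 nm) gave the GFP/RFP total-intensity ratio.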
# [1] = measured here: GFP splicing reporter channel
# [2] = measured here: RFP viability control channel
SMILES,AC50 [1],AC50 [2]
c1cncc(CSc2ccc(-c3ccc4c(c3)OCO4)nn2)c1,"0.00355 µM [rising, full curve, poor fit]",–
O=S(=O)(Nc1cccc(-c2nc3cccnc3s2)c1)c1ccc2c(c1)CCCC2,"14.1 µM [rising, single point]","22.4 µM [rising, single point]"
Cc1ccc(NC(=O)c2ccccc2Br)cc1S(=O)(=O)N(C)C,–,"0.355 µM [rising, full curve, poor fit]"
COc1ccc(S(=O)(=O)N2CCOC2CNC(=O)C(=O)NCCc2c[nH]c3ccccc23)cc1C (stereo not drawn),–,"14.1 µM [rising, partial curve]"
O=C(NC(NC(=S)Nc1c(Cl)cccc1Cl)C(Cl)(Cl)Cl)c1cccc([N+](=O)[O-])c1 (stereo not drawn),"0.01 µM [rising, full curve, poor fit]","12.6 µM [rising, partial curve, poor fit]"
Cc1ccc(N/C(SCc2ccccc2C)=C(/C#N)C(=O)NCc2ccco2)cc1C,"8.91 µM [rising, partial curve]","12.6 µM [rising, partial curve]"
CC(C)[C@H](NC(=O)c1ccccc1)C(=O)OCC(=O)c1ccccc1F,–,"31.6 µM [falling, partial curve, poor fit]"
C[C@H]1Cc2c(COc3ccccc3)nc3c(c2CO1)CN(C(=O)Cc1cccs1)CC3,"0.0562 µM [falling, full curve, poor fit]","0.00355 µM [falling, full curve, poor fit]"
CCOc1ccccc1NC(=O)COC(=O)c1cc(C(=O)OC)cc([N+](=O)[O-])c1,"0.708 µM [falling, single point]",–
CCc1c(-c2ccccc2)nc2ccccc2c1C(=O)NCCc1ccccc1,"14.1 µM [falling, partial curve, poor fit]","0.891 µM [falling, partial curve, poor fit]"
Cc1cnc(C(=O)OCC(=O)NC2CCCCC2)cn1,–,"14.1 µM [rising, single point]"
O=C(Nc1ccc(Cn2nnc3ccccc32)cc1)c1ccco1,"8.91 µM [rising, partial curve]","7.94 µM [rising, partial curve, poor fit]"
COc1ccc2c(c1)CC(NC(=O)Nc1c(C)cc(C)cc1C)CO2 (stereo not drawn),"5.62 µM [rising, single point]",–
Clc1ccc(-c2cc(C3CCNCC3)[nH]n2)c(Cl)c1,"35.5 µM [falling, single point]",–
COC(=O)C1=C(N)N(c2ccccc2F)C2=C(C(=O)CC(C)(C)C2)C1c1ccc(OC)c(OC)c1 (stereo not drawn),"0.1 µM [rising, full curve, poor fit]","0.2 µM [rising, full curve, poor fit]"
CCc1ccc(NS(=O)(=O)c2ccc3[nH]cc(C(=O)NCC4CCCO4)c(=O)c3c2)cc1 (stereo not drawn),"6.31 µM [rising, partial curve, poor fit]",–
CCOc1cc(/C=C/c2cc(C(=O)O)c3ccccc3n2)ccc1OC,–,"31.6 µM [rising, single point]"
O=S(=O)(NC1CCCCC1Nc1ccc(Cl)cc1)c1ccccc1 (stereo not drawn),–,"25.1 µM [rising, single point]"
NS(=O)(=O)c1ccc(NC(=O)c2cccc(Cl)c2)cc1,"0.355 µM [rising, partial curve]",–
CN(C)CCn1nnnc1SCC1=C(C(=O)O)N2C(=O)[C@@H](NC(=O)Cc3csc(N)n3)[C@@H]2SC1,–,"14.1 µM [falling, single point]"
CC(=O)c1ccc(S(=O)(=O)Nc2cccc(-c3ccc4nncn4n3)c2)cc1,–,"35.5 µM [rising, single point]"
Cc1c(O)ccc2c3c(c(=O)oc12)CCC(C)C3 (stereo not drawn),–,"15.8 µM [rising, single point]"
O=C(NCc1cccc(Cl)c1)c1cc(COc2ccc3ncccc3c2)on1,"3.98 µM [falling, partial curve, poor fit]","1.58 µM [falling, partial curve, poor fit]"
O=C(O)CCNS(=O)(=O)c1ccc2c(c1)Cc1ccccc1-2,–,"3.55 µM [rising, full curve, poor fit]"
O=[N+]([O-])c1ccc(Oc2ccc(F)cc2Br)c2ccncc12,"35.5 µM [rising, single point]",–
O=C(C1CCCN(S(=O)(=O)c2cccc3nsnc23)C1)N1CCc2ccccc21 (stereo not drawn),"6.31 µM [rising, single point]",–

SMILES,AC50 [1],AC50 [2]
CCCOc1ccc(N2C(=O)CC(N(Cc3ccco3)C(C)=O)C2=O)cc1 (stereo not drawn),"10 µM [rising, partial curve, poor fit]","35.5 µM [rising, partial curve, poor fit]"
COc1cccc(Cn2c(=O)c(-c3cc(F)cc(F)c3)nc3cncnc32)c1,"1.41 µM [falling, partial curve, poor fit]","1.78 µM [falling, partial curve, poor fit]"
Cc1cc(S(=O)(=O)Nc2ccc(-c3ccc(N4CCCCC4)nn3)cc2)c(C)cc1Cl,"8.91 µM [falling, partial curve, poor fit]",–
O=C(/C=C/c1ccc(Cl)cc1)Nc1ccc(CN2CCOCC2)cc1,"7.08 µM [rising, partial curve]","8.91 µM [rising, partial curve]"
CC(C)c1cnc2c(c1SCC(=O)Nc1ccccc1C(F)(F)F)c(=O)n(C)c(=O)n2C,"1.41 µM [rising, partial curve]","2.82 µM [rising, partial curve]"
CCOc1ccc(NC(=O)CSc2nnc(-c3ccccc3Cl)n2Cc2ccco2)cc1,–,"10 µM [rising, partial curve, poor fit]"
O=C1C(Nc2ccc(O)cc2)=C/C(=N/S(=O)(=O)c2cccs2)c2ccccc21,"5.01 µM [falling, full curve]","5.62 µM [falling, full curve]"
CNc1cc([N+](=O)[O-])ccc1N/C=C/C(=O)c1ccc2c(c1)OCO2,–,"7.08 µM [rising, partial curve, poor fit]"
Cn1c(=O)cc(N2CCCCC2)[nH]c1=O,–,"0.1 µM [rising, full curve, poor fit]"
Cc1ccc(CN2CCSc3ccc(C(=O)N4CCN(c5ncccn5)CC4)cc32)cc1,"11.2 µM [rising, partial curve]","20 µM [rising, single point]"
CC(C)(C)c1nnc(NC(=S)Nc2ccccc2)s1,"0.00708 µM [falling, full curve, poor fit]","17.8 µM [falling, partial curve, poor fit]"
COc1ccc(S(=O)(=O)N2CC(C(=O)O)Oc3ccc(CC(=O)O)cc32)cc1 (stereo not drawn),"0.631 µM [falling, full curve]","0.891 µM [falling, full curve]"
O=C(Cc1c(O)c2ccccc2[nH]c1=O)NCc1ccccc1F,–,"5.62 µM [rising, single point]"
C/C(=N\NC(=O)c1ccc(CN(C)S(=O)(=O)c2ccc(C)cc2)cc1)c1ccc(OC(F)F)cc1,"20 µM [rising, single point]","22.4 µM [rising, partial curve, poor fit]"
COc1ccc2nc(Nc3nc4cc5c(cc4s3)OCO5)sc2c1,–,"0.0251 µM [rising, full curve, poor fit]"
COc1ccc(OC)c(NC(=O)C2CCC(CNc3c(N4CCC(C)CC4)c(=O)c3=O)CC2)c1 (stereo not drawn),"11.2 µM [falling, partial curve]",–
COc1ccccc1NS(=O)(=O)c1ccc(Cl)c(NC(=S)NC(=O)C2CCCC2)c1,"11.2 µM [rising, partial curve, poor fit]","35.5 µM [rising, single point]"
O=C(/C=C/Nc1ccc(Nc2ccccc2)cc1)c1cccs1,"0.0224 µM [rising, full curve, poor fit]","8.91 µM [rising, partial curve, poor fit]"
Cc1ccc(C(=O)C(C)Oc2cccc(NC(=O)c3ccco3)c2)cc1 (stereo not drawn),–,"35.5 µM [rising, single point]"
O=C(Nc1nnc(CSCc2ccccc2F)s1)c1cccc([N+](=O)[O-])c1,–,"25.1 µM [rising, single point]"
COc1ccc(CN(C(=O)/C=C/C(=O)c2ccc(OC)cc2O)C(C(=O)NC2CCCCC2)c2ccncc2)cc1 (stereo not drawn),"11.2 µM [rising, single point]","15.8 µM [rising, partial curve]"
COc1ccccc1C(=O)NCCn1cc(SCC(=O)Nc2cc(C)on2)c2ccccc21,–,"17.8 µM [rising, single point]"
Nc1cccc2nc3ccccc3cc12,"7.94 µM [falling, partial curve, poor fit]","11.2 µM [falling, partial curve, poor fit]"
O=C(c1cccc(Br)c1)N1CCN(Cc2cc(=O)n3nc(-c4ccccc4)sc3n2)CC1,–,"31.6 µM [rising, single point]"
CCc1nc2ccccc2c(C(=O)OCC(=O)Nc2cccc(S(=O)(=O)N3CCOCC3)c2)c1C,"15.8 µM [falling, single point]","20 µM [falling, partial curve]"

# Pulled by compound from the entries so far:
SMILES,AC50 [1],AC50 [2]
COc1ccc(OC)c(NC(=O)C2CCC(CNc3c(N4CCC(C)CC4)c(=O)c3=O)CC2)c1 (stereo not drawn),"11.2 µM [falling, partial curve]",–
O=C(/C=C/Nc1ccc(Nc2ccccc2)cc1)c1cccs1,"0.0224 µM [rising, full curve, poor fit]","8.91 µM [rising, partial curve, poor fit]"
O=[N+]([O-])c1ccc(Oc2ccc(F)cc2Br)c2ccncc12,"35.5 µM [rising, single point]",–
